This note sets out measurements from PMC6536580.

Amino acid sequences for entries named in this document (tags omitted). A change or cut given only in a name is not applied to a line headed by its entry.
UniProt Q9HC16: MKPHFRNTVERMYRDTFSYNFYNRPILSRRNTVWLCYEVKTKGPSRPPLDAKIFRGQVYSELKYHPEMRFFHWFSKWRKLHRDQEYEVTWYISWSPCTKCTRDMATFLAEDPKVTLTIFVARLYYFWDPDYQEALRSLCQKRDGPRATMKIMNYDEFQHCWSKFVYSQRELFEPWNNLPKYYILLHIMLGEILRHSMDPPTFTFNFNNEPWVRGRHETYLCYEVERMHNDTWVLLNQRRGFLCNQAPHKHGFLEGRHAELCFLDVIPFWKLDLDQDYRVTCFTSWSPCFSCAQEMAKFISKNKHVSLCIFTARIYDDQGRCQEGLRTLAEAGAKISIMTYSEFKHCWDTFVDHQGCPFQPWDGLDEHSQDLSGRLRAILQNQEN

These are yes or no findings as the source states them, for the method shown. In cells and extracts the contact can be indirect.

The target of the test is HA-tagged human APOBEC3G R122A mutant (human) (UniProt Q9HC16). The test can be described thus: co-IP; HA-tagged A3G (WT or R122A) and GFP-tagged A3G WT transiently co-expressed in HEK293T; lysate precipitated with anti-HA beads; immunoblot with HA- and GFP-specific antibodies. Background: A western blot detects proteins with antibodies after separation by electrophoresis.

Consider “GFP-tagged APOBEC3G wild type (from UniProt Q9HC16 1-384)”, for which the binding result is reported as “no binding”.
